# Results as given in paper PMC7432317, “Structural Analysis of the SANT/Myb Domain of FLASH and YARP Proteins and Their Complex with the C-Terminal Fragment of NPAT by NMR Spectroscopy and Computer Simulations” (International Journal of Molecular Sciences, 2020).
# Sequences of proteins named here, by UniProt entry; tags and fusion partners are left off. Residues count along the entry.
# UniProt Q9UKL3, residues 1880-1982: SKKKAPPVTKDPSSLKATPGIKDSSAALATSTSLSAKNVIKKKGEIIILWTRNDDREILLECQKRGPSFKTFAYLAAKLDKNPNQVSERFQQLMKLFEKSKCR
# No constants are given. Whether binding was seen depends on the method and setting. For some assays here: In cells and extracts the contact can be indirect. Some binding calls cover weakened binding; strength is not graded here.
# T1: C-terminal fragment of Yin Yang 1-Associated Protein-Related Protein (YARP), residues 2149-2209 (human) (UniProt Q3T8J9)
# T1 sequence: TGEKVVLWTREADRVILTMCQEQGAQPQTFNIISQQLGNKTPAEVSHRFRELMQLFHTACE
# Assays:
# [1] = target: FLASH-GST fusion protein, the last 103 residues of FLASH (amino acids 1880-1982) (human) (UniProt Q9UKL3); assay: pull-down; GST fusions FLASH 1880-1982 or YARP 2117-2213 incubated with 35S-labelled in vitro translated NPAT (last 131 amino acids), complexes purified on glutathione beads, SDS-PAGE and radiography; 100 mM KCl; only the target purified
# [2] = target: T1, C-terminal fragment of Yin Yang 1-Associated Protein-Related Protein (YARP), residues 2149-2209 (human); assay: NMR titration; 1H-15N HSQC of 15N-labelled YARP fragment (200 uM) with step-wise addition of the NPAT peptide (100 uM, two fold molar excess of YARP analysed; equimolar mixtures precipitated); 25 mM TRIS-HCl, 250 mM KCl, pH 6.2, 50 mM Arg+Glu, 40 mM TCEP, 298 K; both purified
Binder,binding [1],binding [2]
"NPAT, the last 131 amino acids, L1421K (domain or fragment, UniProt Q14207 1297-1427, 35S label) EDSSTSKVMVPPVTPDLPACSPASETGSENSVNMAAHTLMILSRAAISRTTSATPLKDNTQQFRASSRSTTKKRKIEELDERERNSRPSSKNLTNSSIPMKKKKIKKKKLPSSFPAGMDVDKFLKSLHYDE",binds,–
"NPAT, the last 131 amino acids, L1420K (domain or fragment, UniProt Q14207 1297-1427, 35S label) EDSSTSKVMVPPVTPDLPACSPASETGSENSVNMAAHTLMILSRAAISRTTSATPLKDNTQQFRASSRSTTKKRKIEELDERERNSRPSSKNLTNSSIPMKKKKIKKKKLPSSFPAGMDVDKFKLSLHYDE",binds weakly,–
"NPAT, the last 131 amino acids, D1426N/E1427Q (domain or fragment, UniProt Q14207 1297-1427, 35S label) EDSSTSKVMVPPVTPDLPACSPASETGSENSVNMAAHTLMILSRAAISRTTSATPLKDNTQQFRASSRSTTKKRKIEELDERERNSRPSSKNLTNSSIPMKKKKIKKKKLPSSFPAGMDVDKFLLSLHYNQ",binds,–

# Next, values leading:
binding [1],binding [2],Binder
binds,–,"NPAT, the last 131 amino acids, wild type (domain or fragment, UniProt Q14207 1297-1427, 35S label) EDSSTSKVMVPPVTPDLPACSPASETGSENSVNMAAHTLMILSRAAISRTTSATPLKDNTQQFRASSRSTTKKRKIEELDERERNSRPSSKNLTNSSIPMKKKKIKKKKLPSSFPAGMDVDKFLLSLHYDE"
–,binds,"KKKKIKKKKLPSSFPAGMDVDKFLLSLHYDE (Free N-terminus, carboxyl at C-terminus; also called C-terminal NPAT peptide; source: synthetic peptide (Fmoc solid phase synthesis, RP-HPLC purified)) [NPAT peptide, the last 31 residues of NPAT (1397-1427)]"
